Experimental data published in US7078491 (Amgen, dated 2006).
No constants are given. Whether binding was seen depends on the method and setting. Some binding calls cover weakened binding; strength is not graded here.

Chains of the proteins cited; added tags and fusions are not shown.
UniProt O14746: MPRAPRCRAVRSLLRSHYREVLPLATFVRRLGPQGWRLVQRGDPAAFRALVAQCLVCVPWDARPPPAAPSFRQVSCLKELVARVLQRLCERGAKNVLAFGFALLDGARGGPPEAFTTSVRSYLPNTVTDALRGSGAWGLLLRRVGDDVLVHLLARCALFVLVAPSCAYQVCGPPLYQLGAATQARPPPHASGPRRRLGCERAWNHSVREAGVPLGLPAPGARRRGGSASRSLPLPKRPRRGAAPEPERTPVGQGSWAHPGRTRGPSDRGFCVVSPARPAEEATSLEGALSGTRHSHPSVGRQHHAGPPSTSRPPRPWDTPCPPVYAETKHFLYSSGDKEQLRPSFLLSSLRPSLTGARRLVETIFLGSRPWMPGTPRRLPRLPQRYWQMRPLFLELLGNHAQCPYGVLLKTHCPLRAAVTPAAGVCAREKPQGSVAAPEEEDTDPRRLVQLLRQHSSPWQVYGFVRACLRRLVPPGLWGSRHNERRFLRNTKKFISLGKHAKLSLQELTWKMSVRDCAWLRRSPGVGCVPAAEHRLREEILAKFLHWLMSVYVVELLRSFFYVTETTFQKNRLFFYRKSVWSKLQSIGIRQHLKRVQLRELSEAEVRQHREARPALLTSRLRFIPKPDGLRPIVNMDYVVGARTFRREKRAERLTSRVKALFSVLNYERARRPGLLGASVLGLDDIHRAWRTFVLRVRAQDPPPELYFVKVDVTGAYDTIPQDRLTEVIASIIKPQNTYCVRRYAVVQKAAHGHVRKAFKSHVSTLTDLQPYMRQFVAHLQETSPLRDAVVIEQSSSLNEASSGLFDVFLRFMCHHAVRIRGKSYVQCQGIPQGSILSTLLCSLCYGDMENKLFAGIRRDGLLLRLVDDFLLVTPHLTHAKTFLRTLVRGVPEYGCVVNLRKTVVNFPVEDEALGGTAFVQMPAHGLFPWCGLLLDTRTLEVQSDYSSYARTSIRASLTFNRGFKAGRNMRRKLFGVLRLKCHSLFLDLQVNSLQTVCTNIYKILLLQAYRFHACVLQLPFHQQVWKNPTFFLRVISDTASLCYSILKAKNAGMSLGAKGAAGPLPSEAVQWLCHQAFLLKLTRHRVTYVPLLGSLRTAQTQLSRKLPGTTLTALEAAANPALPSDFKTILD

What was measured:
[1] = molecular target: catalytic subunit of human telomerase (hTERT) (human) (UniProt O14746); experiment: Western blot
[2] = molecular target: catalytic subunit of human telomerase (hTERT) (human) (UniProt O14746); experiment: Western blot and immunoprecipitation (summary)
[3] = molecular target: purified recombinant human TERT reverse transcriptase domain (human) (UniProt O14746); experiment: Western blot, 0.2 µg/ml antibody, ECL exposure 1 hour
[4] = molecular target: purified recombinant human TERT reverse transcriptase domain (human) (UniProt O14746); experiment: Western blot of purified hTERT-RT (100 ng) with hybridoma supernatant
[5] = molecular target: flag-tagged hTERT protein from transfected 293T cells (human) (UniProt O14746); experiment: immunoprecipitation from 293T lysate, Western blot with peptide polyclonal antibody

Measured: binding

B1: 4B5 monoclonal antibody (hybridoma 4B5, ATCC PTA-2411) (antibody, V domains shown)
VH: EVKLVESGGGLVKPGGSLKLSCAASGFTFSSYAMSWVRQTPEKRLEWVASISSGGNTYYPDNVQGRFTISRDNARNILYLQMSSLRSEDTAMFYCAREGVYDTYGGVDYWGQGTTLTVSS
VL: DIVLTQSPTSLAVSLGQRATISCKASQSVDYDGDSFINWYQQTPGQPPKLLIYAASNLASGIPARFSGSGSGTDFTLNIHPVEEEDAATYYCQQSNEAPPTFGGGTKLEI
binds: all assays above

B2: 4A5 monoclonal antibody (hybridoma 4A5, ATCC PTA-2412) (antibody, V domains shown)
VH: EVKLVESGGGLVKPGGSLKLSCAASGFTFSSYAMSWVRQTPEKRLEWVASISSGGNTYYPDNVQGRFTISRDNARNILYLQMSSLRSEDTAMFYCAREGVYDTYGGVDYWGQGTTLTVSS
VL: DIVLTQSPTSLAVSLGQRATISCKASQSVDYDGDSFINWYQQTPGQPPKLLIYAASNLASGIPARFSGSGSGTDFTLNIHPVEEEDAATYYCQQSNEAPPTFGGGTKLEI
notes: Mouse monoclonal from hybridoma, characterized as IgG2B type, kappa light chain primers used; also called 4A5 mAb; 45A
not listed: [5]
binds: all other assays above
